In the assay the target is human ACC2 (Homo sapiens, UniProt O00763). As to the kind of experiment: ACC2 assay, spectrophotometric 384 well assay (NADH-linked, coupled lactate dehydrogenase/pyruvate kinase). The settings on record: hACC2 construct lacking 128 N-terminal amino acids, 25° C., 340 nm. How it is done: Spectrophotometric 384 Well Assay
Malonyl CoA formation by acetyl CoA carboxylases is stoichometrically linked to the consumption of ATP. ACC2 activity is measured in a NADH-linked kinetic method measuring ADP generated during the ACC reaction using a coupled lactate dehydrogenase/pyruvate kinase reaction.
For biological testing, a human ACC2 construct which lacks the 128 amino acids at the N-terminus for increased solubility (nt 385-6966 in Genbank entry AJ575592) is cloned. The protein is then expressed in insect cells using a baculoviral expression system. Protein purification is performed by anion exchange.
All compounds are dissolved in dimethyl sulfoxide (DMSO) to a concentration of 10 mM.
Assay reactions are then carried out in 384-well plates, with hACC2 in an appropriate dilution and at final assay concentrations (f.c.) of 100 mM Tris (pH 7.5), 10 mM trisodium citrate, 25 mM KHCO3, 10 mM MgCl2, 0.5 mg/mL BSA, 3.75 mM reduced L-glutathione, 15 U/mL lactate dehydrogenase, 0.5 mM phosphoenolpyruvate, 15 U/mL pyruvate kinase, compounds at different concentrations at final DMSO concentrations of 1%.
The enzymatic reaction is then started by addition of a mixture of NADH, acetyl Coenzyme A (both 200 μM f.c.) and ATP (500 uM f.c.). The decrease of the optical density (slope S) is then determined at 25° C. at a wavelength of 340 nm over 15 minutes in a spectrophotometric reader.
Each assay microtiter plate contains wells with vehicle instead of compound as controls for the non-inhibited enzyme (100% CTL; ‘HIGH’) and wells without acetyl-CoA as controls for non-specific NADH degradation (0% CTL; ‘LOW’).
The slope S is used for calculation of % CTL=(S(compound)−S('LOW'))/(S('HIGH')−S('LOW'))*100. Compounds will give values between 100% CTL (no inhibition) and 0% CTL (complete inhibition).
For IC50 value determination, the sample slope in the presence of the test compound after subtraction of the low controls (S(compound)−S('LOW')) are used.
An IC50 value is derived from the compound slopes at different dosages after subtraction of the low controls (S(compound)−S('LOW')) by non-linear regression curve fitting (equation y=(A+((B−A)/(1+((C/x)^D))))).

Amino acid sequences for entries named in this document (tags omitted). Residues count along the entry.
UniProt O00763, 129-2458 limits assumed: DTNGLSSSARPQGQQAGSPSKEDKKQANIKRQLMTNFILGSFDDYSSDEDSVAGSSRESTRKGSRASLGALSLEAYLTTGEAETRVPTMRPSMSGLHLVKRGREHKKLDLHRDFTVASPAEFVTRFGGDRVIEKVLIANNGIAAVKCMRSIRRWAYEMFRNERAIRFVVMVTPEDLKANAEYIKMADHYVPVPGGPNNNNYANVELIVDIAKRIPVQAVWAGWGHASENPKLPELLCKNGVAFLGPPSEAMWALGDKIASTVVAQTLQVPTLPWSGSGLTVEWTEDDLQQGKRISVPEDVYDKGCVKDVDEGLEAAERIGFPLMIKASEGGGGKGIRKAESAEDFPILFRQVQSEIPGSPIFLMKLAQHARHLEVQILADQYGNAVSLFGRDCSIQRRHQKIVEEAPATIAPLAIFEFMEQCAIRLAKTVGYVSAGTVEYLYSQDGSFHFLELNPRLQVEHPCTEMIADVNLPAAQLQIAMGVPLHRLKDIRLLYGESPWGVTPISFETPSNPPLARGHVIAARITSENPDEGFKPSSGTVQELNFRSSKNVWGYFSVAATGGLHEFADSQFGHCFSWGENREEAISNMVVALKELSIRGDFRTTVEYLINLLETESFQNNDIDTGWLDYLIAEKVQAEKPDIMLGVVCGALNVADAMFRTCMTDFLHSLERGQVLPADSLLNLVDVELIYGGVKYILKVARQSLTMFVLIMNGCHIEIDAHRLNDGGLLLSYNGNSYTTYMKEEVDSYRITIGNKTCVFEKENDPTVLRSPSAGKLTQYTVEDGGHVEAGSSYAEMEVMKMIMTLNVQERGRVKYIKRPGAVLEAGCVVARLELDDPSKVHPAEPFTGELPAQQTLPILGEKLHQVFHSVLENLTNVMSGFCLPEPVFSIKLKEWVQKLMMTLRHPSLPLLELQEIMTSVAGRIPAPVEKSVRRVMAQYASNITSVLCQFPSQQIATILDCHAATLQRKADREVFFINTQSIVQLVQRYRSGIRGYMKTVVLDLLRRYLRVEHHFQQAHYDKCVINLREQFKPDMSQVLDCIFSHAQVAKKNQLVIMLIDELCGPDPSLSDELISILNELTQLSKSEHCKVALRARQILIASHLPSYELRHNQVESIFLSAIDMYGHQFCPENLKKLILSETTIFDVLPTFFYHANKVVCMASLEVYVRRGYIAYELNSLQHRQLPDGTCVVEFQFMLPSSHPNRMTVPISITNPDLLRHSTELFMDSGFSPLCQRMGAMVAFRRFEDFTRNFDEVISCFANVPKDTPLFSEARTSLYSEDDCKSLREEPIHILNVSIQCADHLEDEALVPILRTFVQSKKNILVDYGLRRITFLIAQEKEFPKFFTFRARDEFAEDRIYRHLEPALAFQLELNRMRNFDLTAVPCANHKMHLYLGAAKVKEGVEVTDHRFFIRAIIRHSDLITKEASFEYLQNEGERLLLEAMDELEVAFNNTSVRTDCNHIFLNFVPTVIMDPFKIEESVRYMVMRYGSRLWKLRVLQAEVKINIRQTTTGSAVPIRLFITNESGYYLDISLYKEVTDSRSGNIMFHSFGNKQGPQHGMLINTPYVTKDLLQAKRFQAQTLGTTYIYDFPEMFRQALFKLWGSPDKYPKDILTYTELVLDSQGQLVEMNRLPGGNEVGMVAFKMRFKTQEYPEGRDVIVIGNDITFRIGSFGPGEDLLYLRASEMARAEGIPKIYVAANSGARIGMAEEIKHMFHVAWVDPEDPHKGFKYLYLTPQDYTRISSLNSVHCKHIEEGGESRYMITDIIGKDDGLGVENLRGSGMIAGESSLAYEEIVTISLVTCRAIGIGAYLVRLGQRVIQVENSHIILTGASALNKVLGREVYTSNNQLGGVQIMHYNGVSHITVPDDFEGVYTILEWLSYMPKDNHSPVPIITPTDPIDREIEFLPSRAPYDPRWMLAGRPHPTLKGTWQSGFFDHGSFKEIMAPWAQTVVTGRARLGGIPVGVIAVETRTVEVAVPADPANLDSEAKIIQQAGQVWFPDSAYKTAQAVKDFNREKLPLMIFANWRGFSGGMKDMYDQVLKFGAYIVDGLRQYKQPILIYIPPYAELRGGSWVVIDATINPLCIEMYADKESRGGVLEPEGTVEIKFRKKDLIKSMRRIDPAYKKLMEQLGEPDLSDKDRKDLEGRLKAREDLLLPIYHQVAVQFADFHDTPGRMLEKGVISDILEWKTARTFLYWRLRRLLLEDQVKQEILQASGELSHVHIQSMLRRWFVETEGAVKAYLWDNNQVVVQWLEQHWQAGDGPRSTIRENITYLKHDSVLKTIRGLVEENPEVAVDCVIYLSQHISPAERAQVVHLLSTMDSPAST

The values that follow come from patent US9006450B2 (Boehringer Ingelheim International GmbH, priority 2010, dated 2015).

Structures were worked out from names or drawings and are uncertain.

The compound `COc1ncc(N2CCC(c3ccc([C@H](C)NC(C)=O)cc3)CC2)c(OC)n1` returned a concentration for half-maximal inhibition (IC50) of 1200 nM. `CCCOc1ccc(N2CCC(c3ccc(CC(C)NC(C)=O)cc3)CC2)c(OC)c1` (stereo not shown) gave a half-inhibitory concentration (IC50) of 830 nM. As for `CC(=O)N[C@@H](C)c1ccc(C2CCN(c3ccc(OCC4CC4)cc3)CC2)cc1`, the 50% inhibitory concentration (IC50) was found to be 90 nM.

The compound `CC(=O)NC(C)Cc1ccc(C2CCN(c3ccc(OCC4CC4)cc3F)CC2)cc1` (stereo not shown) displayed a half-inhibitory concentration (IC50) of 920 nM.
